Source: US9782401B1, “Method of isolating phenanthroindolizidine alkaloids from Tylophora atrofolliculata with HIF-1 inhibitory activity, compositions comprising them and their use” (priority 2016, dated 2017)
Some results were stated once for a whole list of compounds, not compound by compound.

By UniProt entry, the sequences of proteins in these tests, tags left out.
UniProt Q16665, whole entry: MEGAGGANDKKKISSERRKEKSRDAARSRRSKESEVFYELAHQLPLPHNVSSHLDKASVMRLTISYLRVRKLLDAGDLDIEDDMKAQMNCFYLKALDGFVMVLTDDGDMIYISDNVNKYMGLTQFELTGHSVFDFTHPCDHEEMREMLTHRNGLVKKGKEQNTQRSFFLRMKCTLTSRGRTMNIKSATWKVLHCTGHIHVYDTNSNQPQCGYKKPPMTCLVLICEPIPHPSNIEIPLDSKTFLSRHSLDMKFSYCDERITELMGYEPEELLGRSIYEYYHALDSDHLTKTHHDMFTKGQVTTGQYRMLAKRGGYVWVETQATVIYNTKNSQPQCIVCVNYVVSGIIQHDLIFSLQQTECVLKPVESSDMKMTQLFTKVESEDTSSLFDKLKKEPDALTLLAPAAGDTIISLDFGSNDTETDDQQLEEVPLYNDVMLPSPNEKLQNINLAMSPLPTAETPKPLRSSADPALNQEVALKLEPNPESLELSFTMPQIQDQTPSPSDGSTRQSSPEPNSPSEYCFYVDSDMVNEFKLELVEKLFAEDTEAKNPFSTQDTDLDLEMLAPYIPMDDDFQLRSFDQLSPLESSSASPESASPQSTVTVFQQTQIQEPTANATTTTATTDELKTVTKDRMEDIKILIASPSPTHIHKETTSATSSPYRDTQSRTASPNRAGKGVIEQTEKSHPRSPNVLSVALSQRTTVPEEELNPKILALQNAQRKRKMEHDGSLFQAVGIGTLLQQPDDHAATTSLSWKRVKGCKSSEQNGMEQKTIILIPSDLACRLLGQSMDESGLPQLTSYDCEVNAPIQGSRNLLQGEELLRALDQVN

Molecular target: HIF-1 (Homo sapiens, UniProt Q16665)
Test: HIF-1-mediated reporter gene assay in T47D cells (HRE-luciferase, hypoxia-induced HIF-1 activation)
Assay type: cell-based
Design: endogenous in cells; host or cells: T47D cells (American Type Culture Collection)
Conditions: (5) versus (14); 11, 19 versus (12), (20)
Description: The HIF-1-mediated reporter gene assay in T47D cells was performed according to a previous protocol with minor modification (Parhira, S. et al., Sci. Rep., 2014, 4, 4748). T47D cells (American Type Culture Collection) were cultured in DMEM medium (Invitrogen), supplemented with 10% (v/v) fetal serum (FBS) (Invitrogen), 100 U/mL penicillin, and 100 μg/mL streptomycin (Invitrogen) in a humidified atmosphere (5% CO2 and 95% air) at 37° C. Cells (5×10^6) were co-transfected with the HRE-luciferase (Addgene) and Renilla plasmids using Lipofectamine 2000 (Invitrogen) according to the manufacturer's protocol. The transfected cells were seeded in 96-well plates with a density of 5×10^4/well and cultured in DMEM with 10% FBS overnight. After addition of the test compounds with different concentrations, the cells were incubated for 1 h, and then exposed to hypoxic (2% O2/5% CO2/93% N2) or normoxic (5% CO2/95% air) conditions at 37° C. for 20 h. Then the cells were lysed, and luciferase assay was performed using a Dual-Luciferase® reporter assay (Promega) kit according to the instructions of the manufacturer. Luciferase activities of both HRE and Renilla were determined by a multimode reader (Infinite 200 PRO, Teacan). HIF-1 transcriptional activity was shown by the ratio of firefly/Renilla luciferase activity. IC50 values were determined from the dose-response curves using Prism software. […]

COc1cc2c3c(c4cc(OC)c(OC)cc4c2cc1OC)C[N@+]1([O-])CCC[C@H]1C3 [compound 11, 10R, 13aS-tylophorine N-oxide]
fold loss/decrease in HIF-1 inhibitory activity versus counterpart without C-2 hydroxyl/methoxyl: at least 3 fold

COc1cc2c3c(c4cc(OC)c(OC)cc4c2cc1OC)CN1CCC[C@H]1C3 [compound 19, 13aS-tylophorine]
fold loss/decrease in HIF-1 inhibitory activity versus counterpart without C-2 hydroxyl/methoxyl: at least 3 fold
